Data as given in PubChem BioAssay AID1224828 (NIAID, 2016)

Aim: 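Knock-downs that increase or decrease LPS-induced p65 nuclear translocation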 (primary screen)
Cells: mouse RAW264.7 G9 macrophage reporter cells (GFP-p65, Tnf promoter-mCherry)
Reagents: siRNA pool against mouse genes, 100 nM
Timing: 2 days siRNA transfection, then 40 min LPS before fixation
Treatment: LPS (Salmonella minnesota R595) at 10 ng/ml
Detection: 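Microscopy ratio of nuclear to perinuclear-ring GFP-p65 signal, scaled to the plate median; gene score is the average of two replicate robust z-scores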
Reading the numbers: p65 translocation robust z-score: higher = more nuclear NF-kappaB p65 after LPS than the plate median; nuclear/cytoplasmic p65 ratio: higher = more nuclear NF-kappaB p65
Call rule: 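Active if robust z is above 3.3 (negative regulators) or below -1.56, the Tlr4 control median (positive regulators); activity score 50 or more; control wells not called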
Meaning of the calls: active = hit (p65 shift raised or lowered); inactive = no clear change
Here is one part, drawn at random, of about 17,000 reagents. Over the whole deposit, 762 (4.5%) are marked active. 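Active calls include both raised and lowered p65 entry, mostly lowered; wells with fewer than 50 cells lack a z-score.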 The raw values are shown without normalisation. A number with no mark means an inactive call. A reagent listed more than once was tested more than once; the source does not tell the runs apart.

Llph scored p65 translocation robust z-score 0.27; nuclear/cytoplasmic p65 ratio, rep 1 = 1.11; nuclear/cytoplasmic p65 ratio, rep 2 = 1.45; low cell count flag enough cells to score.
Depletion of Cdc42se2 resulted in: p65 translocation robust z-score 0.77; nuclear/cytoplasmic p65 ratio, rep 1 = 1.81; nuclear/cytoplasmic p65 ratio, rep 2 = 1.49; low cell count flag enough cells to score.
With knock-down of Cdc42se2, the screen gave p65 translocation robust z-score 2.06; nuclear/cytoplasmic p65 ratio, rep 1 = 1.75; nuclear/cytoplasmic p65 ratio, rep 2 = 1.65; low cell count flag enough cells to score.
With knock-down of Chp1 the results were p65 translocation robust z-score 0.93; nuclear/cytoplasmic p65 ratio, rep 1 = 1.58; nuclear/cytoplasmic p65 ratio, rep 2 = 1.66; low cell count flag enough cells to score.

2 consecutive entries already listed, for reference:
Llph → p65 translocation robust z-score: 0.27; nuclear/cytoplasmic p65 ratio, rep 1: 1.11; nuclear/cytoplasmic p65 ratio, rep 2: 1.45; low cell count flag: enough cells to score
Cdc42se2 → p65 translocation robust z-score: 0.77; nuclear/cytoplasmic p65 ratio, rep 1: 1.81; nuclear/cytoplasmic p65 ratio, rep 2: 1.49; low cell count flag: enough cells to score

Next results:
Silencing of Ccna1 gave: p65 translocation robust z-score -1.46; nuclear/cytoplasmic p65 ratio, rep 1 = 1.17; nuclear/cytoplasmic p65 ratio, rep 2 = 1.19; low cell count flag enough cells to score.
For Grap, the entry reads p65 translocation robust z-score -1.47; nuclear/cytoplasmic p65 ratio, rep 1 = 1.23; nuclear/cytoplasmic p65 ratio, rep 2 = 1.19; low cell count flag enough cells to score.
Ogg1 scored p65 translocation robust z-score 0.47; nuclear/cytoplasmic p65 ratio, rep 1 = 1.51; nuclear/cytoplasmic p65 ratio, rep 2 = 1.47; low cell count flag enough cells to score.
Silencing of Bloc1s4 resulted in: p65 translocation robust z-score 0.07; nuclear/cytoplasmic p65 ratio, rep 1 = 1.74; nuclear/cytoplasmic p65 ratio, rep 2 = 1.65; low cell count flag enough cells to score.
Rab23 showed p65 translocation robust z-score -0.23; nuclear/cytoplasmic p65 ratio, rep 1 = 1.57; nuclear/cytoplasmic p65 ratio, rep 2 = 1.4; low cell count flag enough cells to score.
Against Plekhg3 the deposit lists p65 translocation robust z-score -0.23; nuclear/cytoplasmic p65 ratio, rep 1 = 1.54; nuclear/cytoplasmic p65 ratio, rep 2 = 1.81; low cell count flag enough cells to score.
After knock-down of Vezt, the record shows p65 translocation robust z-score 0.42; nuclear/cytoplasmic p65 ratio, rep 1 = 1.67; nuclear/cytoplasmic p65 ratio, rep 2 = 1.74; low cell count flag enough cells to score.
Akr1c20 showed p65 translocation robust z-score 0.44; nuclear/cytoplasmic p65 ratio, rep 1 = 1.57; nuclear/cytoplasmic p65 ratio, rep 2 = 1.77; low cell count flag enough cells to score.
